Measurements: article PMC3749157
Positions count from the first letter of the chain named. No constants are given. Whether binding was seen depends on the method and setting. Some results given as binding are weak or reduced against the parent protein; the word gives no strength.

Sequences of proteins named here, by UniProt entry; tags and fusion partners are left off. Residues count along the entry.
UniProt Q9P126, residues 55-229: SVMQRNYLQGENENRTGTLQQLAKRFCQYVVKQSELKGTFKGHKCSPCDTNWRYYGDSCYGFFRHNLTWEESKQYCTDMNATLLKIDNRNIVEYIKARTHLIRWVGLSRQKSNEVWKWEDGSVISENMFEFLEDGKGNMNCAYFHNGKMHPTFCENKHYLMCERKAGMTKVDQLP

Tests used:
Test in all cases: flow cytometry on cells; CHO/mock, CHO/Aggrus, CHO/Aggrus-G45A and CHO/Aggrus-D49A cells treated with mouse IgG Fc-conjugated human CLEC-2 (4 µg/ml), then Alexa Fluor 488-conjugated anti-mouse IgG; only the binder purified
[1] = biological target: T1, human Aggrus D49A, on CHO/Aggrus-D49A cells (human) (UniProt Q86YL7)
T1 sequence: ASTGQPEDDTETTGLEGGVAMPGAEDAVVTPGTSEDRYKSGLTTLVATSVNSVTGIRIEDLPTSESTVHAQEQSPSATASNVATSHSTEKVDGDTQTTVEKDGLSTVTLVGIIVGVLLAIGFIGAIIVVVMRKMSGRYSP

[2] = biological target: T2, human Aggrus G45A, on CHO/Aggrus-G45A cells (human) (UniProt Q86YL7)
T2 sequence: T1 sequence with G23A, A27D

[3] = biological target: T3, human Aggrus, wild type, on CHO/Aggrus cells (human) (UniProt Q86YL7)
T3 sequence: T1 sequence with A27D

Measured: binding

mouse IgG Fc-conjugated recombinant human CLEC-2 protein (from UniProt Q9P126 55-229) (Fc fusion)
binds: [1] | [2] | [3]
